Assay results published in the supplement of paper PMC8728848.
The list shows a part of the results.

Key:
Experiment in all cases: glycan array binding signal (z-score within array); higher = stronger binding
Details in all cases: glycan notation: IUPAC condensed, linker removed
[1] = target: Fuc(a1-3)[Gal3S(b1-4)]GlcNAc6S
In short: (§1)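 Glycan array data were curated from 3228 arrays in the Consortium for Functional Glycomics database and kept only where the protein sequence was available. Glycan names were converted to IUPAC-condensed notation, and columns mapping to the same glycan were averaged. The binding signal is a within-array Z-score, averaged across arrays of the same protein sequence at different concentrations or buffers and across linkers. Negative Z-scores can be read as non-binding.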

[2] = target: Fuc(a1-3)[GalNAc(b1-4)]GlcNAc
In short: as §1

[3] = target: Fuc(a1-3)[GalNAc(b1-4)]GlcNAc6S
In short: as §1

[4] = target: Fuc(a1-4)GlcNAc
In short: as §1

[5] = target: Fuc(b1-3)GlcNAc
In short: as §1

[6] = target: Gal(a1-2)Gal
In short: as §1

[7] = target: Gal(a1-3)Gal
In short: as §1

[8] = target: Gal(a1-3)Gal(b1-3)GlcNAc
In short: as §1

[9] = target: Gal(a1-3)Gal(b1-3)GlcNAc(b1-2)Man
In short: as §1

[10] = target: Gal(a1-3)Gal(b1-3)GlcNAc(b1-2)Man(a1-3)[Gal(a1-3)Gal(b1-3)GlcNAc(b1-2)Man(a1-6)]Man(b1-4)GlcNAc(b1-4)GlcNAc
In short: as §1

[11] = target: Gal(a1-3)Gal(b1-3)GlcNAc(b1-3)GalNAc
In short: as §1

[12] = target: Gal(a1-3)Gal(b1-3)GlcNAc(b1-6)GalNAc
In short: as §1

[13] = target: Gal(a1-3)Gal(b1-3)[Fuc(a1-4)]GlcNAc(b1-2)Man(a1-3)[Gal(a1-3)Gal(b1-3)[Fuc(a1-4)]GlcNAc(b1-2)Man(a1-6)]Man(b1-4)GlcNAc(b1-4)GlcNAc
In short: as §1

[14] = target: Gal(a1-3)Gal(b1-4)Glc
In short: as §1

[15] = target: Gal(a1-3)Gal(b1-4)GlcNAc
In short: as §1

[16] = target: Gal(a1-3)Gal(b1-4)GlcNAc(b1-2)Man
In short: as §1

[17] = target: Gal(a1-3)Gal(b1-4)GlcNAc(b1-2)Man(a1-3)[Gal(a1-3)Gal(b1-4)GlcNAc(b1-2)Man(a1-6)]Man(b1-4)GlcNAc(b1-4)GlcNAc
In short: as §1

[18] = target: Gal(a1-3)Gal(b1-4)GlcNAc(b1-3)GalNAc
In short: as §1

[19] = target: Gal(a1-3)Gal(b1-4)GlcNAc(b1-6)GalNAc
In short: as §1

[20] = target: Gal(a1-3)Gal(b1-4)[Fuc(a1-3)]GlcNAc
In short: as §1

[21] = target: Gal(a1-3)Gal(b1-4)[Fuc(a1-3)]GlcNAc(b1-2)Man(a1-3)[Gal(a1-3)Gal(b1-4)[Fuc(a1-3)]GlcNAc(b1-2)Man(a1-6)]Man(b1-4)GlcNAc(b1-4)GlcNAc
In short: as §1

[22] = target: Gal(a1-3)GalNAc
In short: as §1

[23] = target: Gal(a1-3)[Gal(a1-4)]Gal(b1-4)GlcNAc
In short: as §1

[24] = target: Gal(a1-4)Gal(b1-3)GlcNAc(b1-2)Man(a1-3)[Gal(a1-4)Gal(b1-3)GlcNAc(b1-2)Man(a1-6)]Man(b1-4)GlcNAc(b1-4)GlcNAc
In short: as §1

[25] = target: Gal(a1-4)Gal(b1-4)Glc
In short: as §1

[26] = target: Gal(a1-4)Gal(b1-4)GlcNAc
In short: as §1

[27] = target: Gal(a1-4)Gal(b1-4)GlcNAc(b1-2)Man(a1-3)[Gal(a1-4)Gal(b1-4)GlcNAc(b1-2)Man(a1-6)]Man(b1-4)GlcNAc(b1-4)GlcNAc
In short: as §1

[28] = target: Gal(a1-4)Gal(b1-4)GlcNAc(b1-3)Gal(b1-4)Glc
In short: as §1

[29] = target: Gal(a1-4)GlcNAc
In short: as §1

[30] = target: Gal(a1-6)Glc
In short: as §1

[31] = target: Gal(b1-2)Gal
In short: as §1

[32] = target: Gal(b1-3)Gal
In short: as §1

[33] = target: Gal(b1-3)Gal(b1-4)GlcNAc
In short: as §1

[34] = target: Gal(b1-3)GalNAc
In short: as §1

[35] = target: Gal(b1-3)GalNAc(a1-3)[Fuc(a1-2)]Gal(b1-4)Glc
In short: as §1

[36] = target: Gal(b1-3)GalNAc(a1-3)[Fuc(a1-2)]Gal(b1-4)GlcNAc
In short: as §1

[37] = target: Gal(b1-3)GalNAc(b1-3)Gal
In short: as §1

[38] = target: Gal(b1-3)GalNAc(b1-3)Gal(a1-4)Gal(b1-4)Glc
In short: as §1

[39] = target: Gal(b1-3)GalNAc(b1-4)Gal(b1-4)Glc
In short: as §1

[40] = target: Gal(b1-3)GalNAc(b1-4)[Neu5Ac(a2-3)]Gal(b1-4)Glc
In short: as §1

[41] = target: Gal(b1-3)GlcNAc
In short: as §1

[42] = target: Gal(b1-3)GlcNAc(a1-3)Gal(b1-4)GlcNAc
In short: as §1

[43] = target: Gal(b1-3)GlcNAc(a1-6)Gal(b1-4)GlcNAc
In short: as §1

[44] = target: Gal(b1-3)GlcNAc(b1-2)Man
In short: as §1

[45] = target: Gal(b1-3)GlcNAc(b1-2)Man(a1-3)[Gal(b1-3)GlcNAc(b1-2)Man(a1-6)]Man(b1-4)GlcNAc(b1-4)GlcNAc
In short: as §1

B1: Wzz (Escherichia coli) (protein)
chain: MRTWKFPSVRVMMRVENNNVSGQNHDPEQIDLIDLLVQLWRGKMTIIISVIVAIVLAIGYLAVAKEKWTSTAIITQPDVGQIAGYNNAMNVIYGQAAPKVSDLQETLIGRFSSAFSALAETLDNQEEPEKLTIEPSVKNQQLPLTVSYVGQTAEGAQMKLAQYIQQVDDKVNQELEKDLKDNIALGRKNLQDSLRTQEVVAQEQKDLRIRQIQEALQYANQAQVTKPQIQQTGEDITQDTLFLLGSEALESMIKHEATRPLVFSSNYYQTRQNLLDIDNLDVDKLDIHAYLYVMKPTLPIRRDSPKKAITLILAVLLGGMVGAGIVLGRNALRNYNAK
[1]
  glycan array binding signal (z-score): -0.588
[2]
  glycan array binding signal (z-score): -0.363
[3]
  glycan array binding signal (z-score): -0.34
[4]
  glycan array binding signal (z-score): -0.001
[5]
  glycan array binding signal (z-score): 0.034
[6]
  glycan array binding signal (z-score): -0.57
[7]
  glycan array binding signal (z-score): 1.22
[8]
  glycan array binding signal (z-score): -0.218
[9]
  glycan array binding signal (z-score): 0.855
[10]
  glycan array binding signal (z-score): 1.4
[11]
  glycan array binding signal (z-score): -0.04
[12]
  glycan array binding signal (z-score): -0.032
[13]
  glycan array binding signal (z-score): 1.41
[14]
  glycan array binding signal (z-score): 0.834
[15]
  glycan array binding signal (z-score): 0.318
[16]
  glycan array binding signal (z-score): -0.518
[17]
  glycan array binding signal (z-score): -0.26
[18]
  glycan array binding signal (z-score): 0.187
[19]
  glycan array binding signal (z-score): -0.648
[20]
  glycan array binding signal (z-score): -0.969
[21]
  glycan array binding signal (z-score): -0.412
[22]
  glycan array binding signal (z-score): -1.05
[23]
  glycan array binding signal (z-score): 0.421
[24]
  glycan array binding signal (z-score): 0.168
[25]
  glycan array binding signal (z-score): -0.111
[26]
  glycan array binding signal (z-score): -0.183
[27]
  glycan array binding signal (z-score): -0.086
[28]
  glycan array binding signal (z-score): 0.032
[29]
  glycan array binding signal (z-score): -1.12
[30]
  glycan array binding signal (z-score): -0.8
[31]
  glycan array binding signal (z-score): -0.473
[32]
  glycan array binding signal (z-score): -0.428
[33]
  glycan array binding signal (z-score): 0.033
[34]
  glycan array binding signal (z-score): 0.081
[35]
  glycan array binding signal (z-score): 0.127
[36]
  glycan array binding signal (z-score): -0.295
[37]
  glycan array binding signal (z-score): -0.357
[38]
  glycan array binding signal (z-score): 0.019
[39]
  glycan array binding signal (z-score): 0.343
[40]
  glycan array binding signal (z-score): -0.404
[41]
  glycan array binding signal (z-score): -0.435
[42]
  glycan array binding signal (z-score): -0.135
[43]
  glycan array binding signal (z-score): -0.474
[44]
  glycan array binding signal (z-score): 0.87
[45]
  glycan array binding signal (z-score): 1.41
